Reference: PubChem BioAssay AID493246 (Drosophila RNAi Screening Center, 2011)

- Screen: 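Genome-wide search for dsRNAs that reduce cell number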 (primary screen)
- Cells: Drosophila Kc and S2R+ cells
- Knock-down reagent: long dsRNA against Drosophila genes
- Measured: 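Raw, unnormalised count of remaining cells in each well; per-plate z-scores of cell number underlie the calls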
- Reading the numbers: Kc cell number and S2R+ cell number: higher = more cells remaining
- Rule for the call: 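Counted as a hit if cell number falls by a z-score of at least 3 within its plate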
The screen tested about 21,000 reagents; shown is an unselected part of those that have a named target and a result. Over the whole deposit, 429 (2%) are marked active. 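Values are raw and not normalised between plates; calls rest on per-plate z-scores that were not deposited.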 Unmarked entries are inactive. Not given: the amount of reagent, the time to read-out.

| Kc cell number, rep 1 | Kc cell number, rep 2 | S2R+ cell number, rep 1 | S2R+ cell number, rep 2 | gene knocked down | PubChem SID |
| --- | --- | --- | --- | --- | --- |
| 1.42e6 | 1.44e6 | 1.16e6 | 1.15e6 | QC (GeneID 38663) | SID104189528 |
| 1.61e6 | 1.74e6 | 1.40e6 | 1.56e6 | Osi8 (GeneID 40762) | SID104192069 |
| 1.47e6 | 1.53e6 | 1.05e6 | 1.18e6 | CG7772 (GeneID 32776) | SID104199848 |
| 1.75e6 | 1.73e6 | 1.13e6 | 1.29e6 | CG15059 (GeneID 32806) | SID104199425 |
| 5.09e5 | – | 8.60e5 | – | Tpi (GeneID 43582) | SID104196680 |
| 8.94e5 (active) | 8.47e5 | 6.50e5 | 5.82e5 | CG13097 (GeneID 34184) | SID104181991 |
| 5.19e5 | – | 7.90e5 | – | CG31998 (GeneID 43774) | SID104196929 |
| 1.47e6 | 1.44e6 | 1.01e6 | 1.11e6 | CG31998 (GeneID 43774) | SID104196930 |
| 1.72e6 | 1.74e6 | 1.56e6 | 1.65e6 | fal (GeneID 43927) | SID104190879 |
| 3.48e5 | – | 5.55e5 | – | RpL4 (GeneID 43349) | SID104196625 |
| 1.61e6 | 1.63e6 | 1.33e6 | 1.41e6 | Neurochondrin (GeneID 40796) | SID104192372 |
| 1.49e6 | 1.52e6 | 1.29e6 | 1.46e6 | CG7094 (GeneID 35065) | SID104182797 |
| 1.60e6 | 1.74e6 | 1.06e6 | 1.27e6 | CG12609 (GeneID 32862) | SID104199265 |
| 1.27e6 | 1.36e6 | 1.11e6 | 1.13e6 | CG13708 (GeneID 38582) | SID104188109 |
| 1.60e6 | 1.73e6 | 1.03e6 | 1.11e6 | CG18528 (GeneID 42906) | SID104195132 |
| 1.50e6 | 1.52e6 | 1.17e6 | 1.24e6 | olf186-M (GeneID 37039) | SID104187449 |
| 1.38e6 | 1.47e6 | 1.08e6 | 1.22e6 | Hr39 (GeneID 35398) | SID104183138 |
| 1.46e6 | 1.55e6 | 1.22e6 | 1.39e6 | Arl2 (GeneID 40993) | SID104193909 |
| 5.30e5 | – | 9.02e5 | – | CG10803 (GeneID 31320) | SID104197555 |
| 1.50e6 | 1.54e6 | 1.28e6 | 1.36e6 | CG30271 (GeneID 246518) | SID104183962 |
| 1.29e6 | 1.38e6 | 1.31e6 | 1.35e6 | Ilp3 (GeneID 39151) | SID104189960 |
| 1.80e6 | 1.84e6 | 1.30e6 | 2.84e5 | CG9265 (GeneID 35369) | SID104182970 |
| 1.68e6 | 1.79e6 | 1.29e6 | 3.13e5 | CG9265 (GeneID 35369) | SID104182971 |
| 1.62e6 | 1.68e6 | 1.01e6 | 1.09e6 | MED22 (GeneID 31038) | SID104197967 |

Continued; the last 3 above are carried over.
| Kc cell number, rep 1 | Kc cell number, rep 2 | S2R+ cell number, rep 1 | S2R+ cell number, rep 2 | gene knocked down | PubChem SID |
| --- | --- | --- | --- | --- | --- |
| 1.80e6 | 1.84e6 | 1.30e6 | 2.84e5 | CG9265 (GeneID 35369) | SID104182970 |
| 1.68e6 | 1.79e6 | 1.29e6 | 3.13e5 | CG9265 (GeneID 35369) | SID104182971 |
| 1.62e6 | 1.68e6 | 1.01e6 | 1.09e6 | MED22 (GeneID 31038) | SID104197967 |
| 1.59e6 | 1.65e6 | 1.37e6 | 1.50e6 | CG9890 (GeneID 37659) | SID104184382 |
| 1.26e6 | 1.33e6 | 7.84e5 | 9.03e5 | roh (GeneID 246602) | SID104183795 |
| 5.51e5 | – | 8.58e5 | – | rha (GeneID 43071) | SID104196836 |
| 5.67e5 | – | 9.18e5 | – | CG2116 (GeneID 31735) | SID104197998 |
| 1.69e6 | 1.76e6 | 1.49e6 | 1.50e6 | Ogdh (GeneID 39899) | SID104189646 |
| 1.34e6 | 1.53e6 | 1.12e6 | 1.25e6 | Ogdh (GeneID 39899) | SID104189647 |
| 1.38e6 | 1.43e6 | 1.25e6 | 1.36e6 | Cpr92A (GeneID 42333) | SID104195792 |
| 1.01e6 | 1.16e6 | 6.56e5 | 6.89e5 | Hs3st-A (GeneID 37161) | SID104186299 |
| 1.65e6 | 1.63e6 | 1.22e6 | 1.38e6 | Hs3st-A (GeneID 37161) | SID104186300 |
| 1.63e6 | 1.72e6 | 1.21e6 | 1.51e6 | Hs3st-A (GeneID 37161) | SID104186301 |
| 1.60e6 | 1.58e6 | 1.45e6 | 1.48e6 | elg1 (GeneID 39770) | SID104190021 |
| 1.53e6 | 1.58e6 | 1.21e6 | 1.38e6 | Trx2 (GeneID 34281) | SID104183414 |
| 1.74e6 | 1.82e6 | 1.25e6 | 1.32e6 | Start1 (GeneID 37927) | SID104184176 |
| 1.55e6 | 1.59e6 | 1.07e6 | 1.21e6 | CG12680 (GeneID 31427) | SID104197663 |
| 1.49e6 | 1.48e6 | 1.03e6 | 1.11e6 | OtopLc (GeneID 7354434) | SID104197874 |
| 1.49e6 | 1.44e6 | 1.01e6 | 1.15e6 | OtopLc (GeneID 7354434) | SID104197875 |
| 1.50e6 | 1.50e6 | 1.01e6 | 1.15e6 | OtopLc (GeneID 7354434) | SID104197924 |
| 1.73e6 | 1.72e6 | 1.19e6 | 1.30e6 | CG15125 (GeneID 37258) | SID104186339 |
| 1.57e6 | 1.59e6 | 1.39e6 | 1.41e6 | CG32462 (GeneID 318043) | SID104191643 |
| 1.69e6 | 1.63e6 | 1.10e6 | 1.27e6 | Ulp1 (GeneID 32910) | SID104199131 |
| 5.49e5 | – | 8.54e5 | – | sov (GeneID 31615) | SID104197722 |
| 1.84e6 | 1.95e6 | 1.17e6 | 1.34e6 | abs (GeneID 40530) | SID104192164 |
| 1.34e6 | 1.34e6 | 1.10e6 | 1.22e6 | CG17477 (GeneID 42067) | SID104195031 |
| 1.55e6 | 1.65e6 | 1.35e6 | 1.50e6 | CG7910 (GeneID 40956) | SID104196133 |
| 1.36e6 | 1.47e6 | 7.58e5 | 8.32e5 | lig (GeneID 35771) | SID104187038 |
| 1.41e6 | 1.62e6 | 9.47e5 | 1.09e6 | lig (GeneID 35771) | SID104187039 |
| 1.33e6 | 1.41e6 | 1.12e6 | 1.21e6 | QIL1 (GeneID 39948) | SID104190680 |
| 1.73e6 | 2.05e6 | 1.24e6 | 1.38e6 | Osi1 (GeneID 40752) | SID104192063 |
| 1.24e6 | 1.34e6 | 9.43e5 | 1.10e6 | hrg (GeneID 49636) | SID104187294 |
| 1.40e6 | 1.42e6 | 1.16e6 | 1.20e6 | CG42269 (GeneID 38689) | SID104190462 |
| 1.57e6 | 1.44e6 | 1.21e6 | 1.24e6 | CG42269 (GeneID 38689) | SID104190464 |
| 1.57e6 | 1.55e6 | 1.17e6 | 1.25e6 | hppy (GeneID 37203) | SID104186806 |
| 1.58e6 | 1.56e6 | 1.20e6 | 1.38e6 | hppy (GeneID 37203) | SID104186807 |
| 1.60e6 | 1.58e6 | 1.25e6 | 1.34e6 | hppy (GeneID 37203) | SID104186808 |
| 1.52e6 | 1.52e6 | 1.16e6 | 1.24e6 | CG9030 (GeneID 32427) | SID104199931 |
